Counter-ions that a name gives are not always drawn. The list shows a part of the results. The calls rarely recur for the same compound in another form.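 In K562 cells expressing nanoluciferase-fused kinases, luminescence was recorded at 4 h intervals between 2 and 18 h, normalized as percent of control with DMSO at 100% and a positive control at 0%. A significant (2 sigma) signal drop marks a time point as decreased. The authors' rule for a hit is not shown and takes in more than the number of time points.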
Assays:
Assay in all cases: kinase-Nluc reporter destabilization hit call (1 = scored as downregulated) (binary); higher = compound decreases kinase abundance
Conditions in all cases: K562, 2-18 h
[1] = biological target: EGFR (UniProt P00533)
[2] = biological target: EGFR_G719S (UniProt P00533)
[3] = biological target: EGFR_G719S_T790M (UniProt P00533)
[4] = biological target: EGFR_L718V (UniProt P00533)
[5] = biological target: EGFR_L858R (UniProt P00533)
[6] = biological target: EGFR_L861Q (UniProt P00533)
[7] = biological target: EGFR_T790M (UniProt P00533)
[8] = biological target: EPHA2 (UniProt P29317)
[9] = biological target: ERBB3 (UniProt P21860)
[10] = biological target: ERBB4_R711C (clone: ERBB4_mut) (UniProt Q15303)
[11] = biological target: ERN1 (UniProt O75460)
[12] = biological target: FGFR1 (UniProt P11362)
[13] = biological target: FGFR2 (UniProt P21802)
[14] = biological target: FGFR3 (UniProt P22607)
[15] = biological target: FGR (UniProt P09769)
[16] = biological target: FLT3 (UniProt P36888)
[17] = biological target: FYN (UniProt P06241)
[18] = biological target: GSK3A (UniProt P49840)
[19] = biological target: HER2 (UniProt P04626)
[20] = biological target: INSRR (UniProt P14616)

The chains behind the UniProt entries cited, without tags or fusion partners. Where a name states a change or a piece, a line headed by the entry shows the natural chain unless it says otherwise.
UniProt P29317, whole entry: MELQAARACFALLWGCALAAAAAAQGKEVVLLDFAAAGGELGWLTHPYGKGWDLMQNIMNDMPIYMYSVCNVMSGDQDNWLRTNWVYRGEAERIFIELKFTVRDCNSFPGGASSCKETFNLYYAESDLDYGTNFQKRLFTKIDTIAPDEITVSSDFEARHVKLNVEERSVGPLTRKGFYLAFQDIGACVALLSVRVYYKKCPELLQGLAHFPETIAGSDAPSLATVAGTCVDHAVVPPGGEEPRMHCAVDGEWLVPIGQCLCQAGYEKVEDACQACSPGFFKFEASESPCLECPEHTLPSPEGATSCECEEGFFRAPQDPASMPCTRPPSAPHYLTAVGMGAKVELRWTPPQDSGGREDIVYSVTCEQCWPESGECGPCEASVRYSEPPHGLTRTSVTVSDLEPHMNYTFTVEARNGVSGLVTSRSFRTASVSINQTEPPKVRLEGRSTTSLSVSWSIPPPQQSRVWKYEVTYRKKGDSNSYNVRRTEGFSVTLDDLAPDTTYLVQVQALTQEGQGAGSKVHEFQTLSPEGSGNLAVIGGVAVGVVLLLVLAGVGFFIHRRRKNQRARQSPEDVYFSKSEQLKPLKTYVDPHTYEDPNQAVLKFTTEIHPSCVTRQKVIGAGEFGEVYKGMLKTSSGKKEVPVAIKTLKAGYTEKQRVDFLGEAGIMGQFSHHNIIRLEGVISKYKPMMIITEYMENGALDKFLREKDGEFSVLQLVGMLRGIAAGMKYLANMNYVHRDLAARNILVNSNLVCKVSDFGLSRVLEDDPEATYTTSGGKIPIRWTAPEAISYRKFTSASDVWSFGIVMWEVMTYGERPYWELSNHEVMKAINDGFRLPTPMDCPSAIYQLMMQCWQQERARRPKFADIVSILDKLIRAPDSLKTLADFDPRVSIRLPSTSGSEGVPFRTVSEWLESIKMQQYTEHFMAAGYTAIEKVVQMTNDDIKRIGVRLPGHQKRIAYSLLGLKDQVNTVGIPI
UniProt O75460: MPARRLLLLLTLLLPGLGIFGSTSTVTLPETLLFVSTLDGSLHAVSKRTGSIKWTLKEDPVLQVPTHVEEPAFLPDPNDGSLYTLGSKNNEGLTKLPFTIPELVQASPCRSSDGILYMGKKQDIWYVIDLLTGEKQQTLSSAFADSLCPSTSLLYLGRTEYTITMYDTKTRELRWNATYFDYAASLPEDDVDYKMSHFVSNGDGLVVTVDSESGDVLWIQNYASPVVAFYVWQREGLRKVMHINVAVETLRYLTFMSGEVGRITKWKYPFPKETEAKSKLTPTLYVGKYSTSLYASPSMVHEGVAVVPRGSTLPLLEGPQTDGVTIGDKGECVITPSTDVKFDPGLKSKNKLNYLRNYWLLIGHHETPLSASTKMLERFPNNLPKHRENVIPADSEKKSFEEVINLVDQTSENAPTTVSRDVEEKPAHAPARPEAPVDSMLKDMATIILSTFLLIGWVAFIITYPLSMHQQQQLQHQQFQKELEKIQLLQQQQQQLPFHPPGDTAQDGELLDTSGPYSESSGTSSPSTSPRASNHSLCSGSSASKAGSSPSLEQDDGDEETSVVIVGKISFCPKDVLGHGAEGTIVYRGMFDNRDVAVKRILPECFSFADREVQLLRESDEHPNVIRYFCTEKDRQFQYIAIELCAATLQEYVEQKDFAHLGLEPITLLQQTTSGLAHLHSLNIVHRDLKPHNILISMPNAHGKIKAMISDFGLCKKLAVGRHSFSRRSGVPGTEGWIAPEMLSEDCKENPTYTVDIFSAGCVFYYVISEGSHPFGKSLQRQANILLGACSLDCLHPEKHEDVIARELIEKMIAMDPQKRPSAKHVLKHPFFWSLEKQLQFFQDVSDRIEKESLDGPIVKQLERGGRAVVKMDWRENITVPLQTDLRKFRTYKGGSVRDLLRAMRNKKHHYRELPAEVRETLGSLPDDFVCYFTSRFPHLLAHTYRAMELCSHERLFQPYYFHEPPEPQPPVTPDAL
UniProt P21802, whole entry, looked up: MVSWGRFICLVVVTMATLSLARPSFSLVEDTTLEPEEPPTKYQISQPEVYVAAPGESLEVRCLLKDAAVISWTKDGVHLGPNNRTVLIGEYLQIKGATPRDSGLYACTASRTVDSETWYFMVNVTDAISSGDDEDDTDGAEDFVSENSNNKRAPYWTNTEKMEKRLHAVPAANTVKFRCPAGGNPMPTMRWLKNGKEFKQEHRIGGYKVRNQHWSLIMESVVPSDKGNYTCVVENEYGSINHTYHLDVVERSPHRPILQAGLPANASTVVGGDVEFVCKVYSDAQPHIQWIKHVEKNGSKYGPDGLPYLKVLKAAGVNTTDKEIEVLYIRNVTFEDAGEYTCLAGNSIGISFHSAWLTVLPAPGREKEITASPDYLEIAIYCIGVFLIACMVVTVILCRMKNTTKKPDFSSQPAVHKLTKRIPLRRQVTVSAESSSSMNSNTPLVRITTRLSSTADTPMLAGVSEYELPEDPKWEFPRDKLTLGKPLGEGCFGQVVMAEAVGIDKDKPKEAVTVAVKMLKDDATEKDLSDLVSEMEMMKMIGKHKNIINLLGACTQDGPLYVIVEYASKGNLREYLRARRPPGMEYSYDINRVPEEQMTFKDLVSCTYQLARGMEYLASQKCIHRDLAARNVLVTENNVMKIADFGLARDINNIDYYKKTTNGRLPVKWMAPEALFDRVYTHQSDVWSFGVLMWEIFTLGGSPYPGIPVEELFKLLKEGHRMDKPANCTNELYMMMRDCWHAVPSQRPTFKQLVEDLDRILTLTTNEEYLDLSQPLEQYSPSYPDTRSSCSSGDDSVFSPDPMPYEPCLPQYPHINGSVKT
UniProt P36888, whole entry: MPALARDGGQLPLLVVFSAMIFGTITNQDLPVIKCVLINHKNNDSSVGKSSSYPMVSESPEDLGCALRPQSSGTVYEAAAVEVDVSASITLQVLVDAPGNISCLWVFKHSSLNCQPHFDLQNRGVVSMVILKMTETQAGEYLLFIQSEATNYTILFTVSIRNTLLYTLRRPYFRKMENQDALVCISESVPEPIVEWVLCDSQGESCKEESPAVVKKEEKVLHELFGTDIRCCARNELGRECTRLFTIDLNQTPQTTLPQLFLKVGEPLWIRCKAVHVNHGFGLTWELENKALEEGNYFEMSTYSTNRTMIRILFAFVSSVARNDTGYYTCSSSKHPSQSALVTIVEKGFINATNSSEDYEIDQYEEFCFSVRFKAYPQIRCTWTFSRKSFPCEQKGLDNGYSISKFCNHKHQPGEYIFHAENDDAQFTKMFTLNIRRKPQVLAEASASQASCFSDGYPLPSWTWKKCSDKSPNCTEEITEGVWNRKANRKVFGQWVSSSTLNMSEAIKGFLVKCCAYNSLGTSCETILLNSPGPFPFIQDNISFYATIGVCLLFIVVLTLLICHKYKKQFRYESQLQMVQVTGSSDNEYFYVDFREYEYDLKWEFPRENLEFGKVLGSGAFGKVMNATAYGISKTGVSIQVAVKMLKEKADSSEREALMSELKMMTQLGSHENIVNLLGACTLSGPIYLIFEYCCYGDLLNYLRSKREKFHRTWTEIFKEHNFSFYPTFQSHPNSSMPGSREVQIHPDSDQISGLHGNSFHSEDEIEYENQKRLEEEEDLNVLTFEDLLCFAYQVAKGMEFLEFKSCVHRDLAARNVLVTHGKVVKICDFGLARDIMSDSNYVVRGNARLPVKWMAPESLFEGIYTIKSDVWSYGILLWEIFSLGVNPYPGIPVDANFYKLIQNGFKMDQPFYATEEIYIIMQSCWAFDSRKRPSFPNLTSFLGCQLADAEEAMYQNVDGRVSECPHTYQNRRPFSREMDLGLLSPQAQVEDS
UniProt P06241, whole entry, looked up: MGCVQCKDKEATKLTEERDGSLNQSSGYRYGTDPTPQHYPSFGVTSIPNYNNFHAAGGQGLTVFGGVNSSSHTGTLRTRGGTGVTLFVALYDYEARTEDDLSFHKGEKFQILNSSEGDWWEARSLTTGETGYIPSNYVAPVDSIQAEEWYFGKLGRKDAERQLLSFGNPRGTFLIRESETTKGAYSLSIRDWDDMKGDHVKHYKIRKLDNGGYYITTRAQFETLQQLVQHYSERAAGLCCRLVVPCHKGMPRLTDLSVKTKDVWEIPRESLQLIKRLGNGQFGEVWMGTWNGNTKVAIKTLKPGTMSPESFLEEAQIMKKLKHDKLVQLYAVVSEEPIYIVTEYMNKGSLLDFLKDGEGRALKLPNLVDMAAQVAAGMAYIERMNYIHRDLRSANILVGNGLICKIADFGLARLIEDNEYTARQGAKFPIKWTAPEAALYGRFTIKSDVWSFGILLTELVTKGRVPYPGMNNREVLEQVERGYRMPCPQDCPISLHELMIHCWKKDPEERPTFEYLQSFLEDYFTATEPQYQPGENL
UniProt P49840: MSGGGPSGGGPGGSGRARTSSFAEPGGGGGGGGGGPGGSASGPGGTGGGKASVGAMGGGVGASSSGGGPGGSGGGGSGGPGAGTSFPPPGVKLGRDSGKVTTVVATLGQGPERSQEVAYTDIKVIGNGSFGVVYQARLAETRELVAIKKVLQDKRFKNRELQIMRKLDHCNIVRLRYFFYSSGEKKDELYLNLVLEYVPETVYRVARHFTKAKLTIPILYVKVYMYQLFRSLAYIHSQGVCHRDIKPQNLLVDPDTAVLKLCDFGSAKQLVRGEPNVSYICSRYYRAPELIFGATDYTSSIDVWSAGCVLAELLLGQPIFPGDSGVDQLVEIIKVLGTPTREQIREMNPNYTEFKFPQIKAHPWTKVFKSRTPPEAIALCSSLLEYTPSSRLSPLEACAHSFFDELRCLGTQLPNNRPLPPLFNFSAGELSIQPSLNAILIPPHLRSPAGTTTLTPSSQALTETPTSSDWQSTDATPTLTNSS
UniProt P14616: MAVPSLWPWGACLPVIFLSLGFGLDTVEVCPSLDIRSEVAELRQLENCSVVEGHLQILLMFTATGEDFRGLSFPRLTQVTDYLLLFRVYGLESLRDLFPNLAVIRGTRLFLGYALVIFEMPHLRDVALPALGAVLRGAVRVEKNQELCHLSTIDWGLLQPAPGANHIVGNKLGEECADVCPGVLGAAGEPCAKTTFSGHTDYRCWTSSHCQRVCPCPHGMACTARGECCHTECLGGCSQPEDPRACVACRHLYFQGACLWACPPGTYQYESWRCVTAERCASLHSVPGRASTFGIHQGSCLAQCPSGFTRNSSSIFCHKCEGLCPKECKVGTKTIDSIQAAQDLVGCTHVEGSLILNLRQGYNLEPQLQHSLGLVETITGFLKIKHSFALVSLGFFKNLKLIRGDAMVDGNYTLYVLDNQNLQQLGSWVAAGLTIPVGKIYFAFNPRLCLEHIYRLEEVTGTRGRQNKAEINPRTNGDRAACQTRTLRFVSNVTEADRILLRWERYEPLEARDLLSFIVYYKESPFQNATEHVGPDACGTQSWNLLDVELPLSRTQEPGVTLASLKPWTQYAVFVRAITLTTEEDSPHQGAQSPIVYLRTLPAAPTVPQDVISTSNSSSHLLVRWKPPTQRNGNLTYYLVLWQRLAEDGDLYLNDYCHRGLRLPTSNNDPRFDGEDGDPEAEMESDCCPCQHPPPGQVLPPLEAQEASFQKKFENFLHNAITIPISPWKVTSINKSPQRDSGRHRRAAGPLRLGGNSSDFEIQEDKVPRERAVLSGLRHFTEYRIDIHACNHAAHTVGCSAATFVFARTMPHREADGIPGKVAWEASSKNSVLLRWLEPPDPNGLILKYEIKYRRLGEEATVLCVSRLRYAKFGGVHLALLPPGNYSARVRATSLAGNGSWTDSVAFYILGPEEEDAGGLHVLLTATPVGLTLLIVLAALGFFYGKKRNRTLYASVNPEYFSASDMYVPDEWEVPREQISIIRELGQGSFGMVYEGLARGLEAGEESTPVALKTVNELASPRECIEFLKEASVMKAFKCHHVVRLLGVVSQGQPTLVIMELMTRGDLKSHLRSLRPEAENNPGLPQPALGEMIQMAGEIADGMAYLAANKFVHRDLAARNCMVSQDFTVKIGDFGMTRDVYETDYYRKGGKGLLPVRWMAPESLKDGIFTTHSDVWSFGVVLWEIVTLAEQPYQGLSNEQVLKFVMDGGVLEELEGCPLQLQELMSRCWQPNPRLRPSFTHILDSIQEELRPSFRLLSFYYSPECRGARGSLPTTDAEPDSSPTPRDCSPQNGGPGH

Measured: kinase-Nluc reporter destabilization hit call

CS(=O)(=O)N1CCN(Cc2cc3nc(-c4cccc5[nH]ncc45)nc(N4CCOCC4)c3s2)CC1 [Pictilisib]
inactive: [1]; 10 µM 0 | [2]; 10 µM 0 | [3]; 10 µM 0 | [4]; 10 µM 0 | [5]; 10 µM 0 | [6]; 10 µM 0 | [7]; 10 µM 0 | [8]; 10 µM 0 | [9]; 10 µM 0 | [10]; 10 µM 0 | [11]; 10 µM 0 | [12]; 10 µM 0 | [13]; 10 µM 0 | [14]; 10 µM 0 | [15]; 10 µM 0 | [16]; 10 µM 0 | [17]; 10 µM 0 | [18]; 10 µM 0 | [19]; 10 µM 0 | [20]; 10 µM 0

Nc1cncc(-c2cn3ccnc3c(Nc3ccc(N4CCN(C5COC5)CC4)cc3)n2)n1 [Lanraplenib (succinate)]
inactive: [1]; 10 µM 0 | [2]; 10 µM 0 | [3]; 10 µM 0 | [4]; 10 µM 0 | [5]; 10 µM 0 | [6]; 10 µM 0 | [7]; 10 µM 0 | [8]; 10 µM 0 | [9]; 10 µM 0 | [10]; 10 µM 0 | [11]; 10 µM 0 | [12]; 10 µM 0 | [13]; 10 µM 0 | [14]; 10 µM 0 | [15]; 10 µM 0 | [16]; 10 µM 0 | [17]; 10 µM 0 | [18]; 10 µM 0 | [19]; 10 µM 0 | [20]; 10 µM 0

O=C1Nc2ccccc2/C1=C/c1ccccn1 [(E/Z)-GSK-3β inhibitor 1]
inactive: [1]; 10 µM 0 | [2]; 10 µM 0 | [3]; 10 µM 0 | [4]; 10 µM 0 | [5]; 10 µM 0 | [6]; 10 µM 0 | [7]; 10 µM 0 | [8]; 10 µM 0 | [9]; 10 µM 0 | [10]; 10 µM 0 | [11]; 10 µM 0 | [12]; 10 µM 0 | [13]; 10 µM 0 | [14]; 10 µM 0 | [15]; 10 µM 0 | [16]; 10 µM 0 | [17]; 10 µM 0 | [18]; 10 µM 0 | [19]; 10 µM 0 | [20]; 10 µM 0

CCCC(=O)Nc1ncnc2c1ncn2[C@@H]1O[C@@H]2COP(=O)(O)O[C@H]2[C@H]1OC(=O)CCC [Bucladesine (calcium)]
inactive: [1]; 10 µM 0 | [2]; 10 µM 0 | [3]; 10 µM 0 | [4]; 10 µM 0 | [5]; 10 µM 0 | [6]; 10 µM 0 | [7]; 10 µM 0 | [8]; 10 µM 0 | [9]; 10 µM 0 | [10]; 10 µM 0 | [11]; 10 µM 0 | [12]; 10 µM 0 | [13]; 10 µM 0 | [14]; 10 µM 0 | [15]; 10 µM 0 | [16]; 10 µM 0 | [17]; 10 µM 0 | [18]; 10 µM 0 | [19]; 10 µM 0 | [20]; 10 µM 0

N#CCC1(n2cc(-c3ncnc4[nH]ccc34)cn2)CN(C2CCN(C(=O)c3ccnc(C(F)(F)F)c3F)CC2)C1 [Itacitinib adipate]
inactive: [1]; 10 µM 0 | [2]; 10 µM 0 | [3]; 10 µM 0 | [4]; 10 µM 0 | [5]; 10 µM 0 | [6]; 10 µM 0 | [7]; 10 µM 0 | [8]; 10 µM 0 | [9]; 10 µM 0 | [10]; 10 µM 0 | [11]; 10 µM 0 | [12]; 10 µM 0 | [13]; 10 µM 0 | [14]; 10 µM 0 | [15]; 10 µM 0 | [16]; 10 µM 0 | [17]; 10 µM 0 | [18]; 10 µM 0 | [19]; 10 µM 0 | [20]; 10 µM 0

c1cc(-c2cnn3cc(-c4ccc(OCCN5CCCCC5)cc4)cnc23)ccn1 [Dorsomorphin]
inactive: [1]; 2.5 µM 0 | [2]; 2.5 µM 0 | [3]; 2.5 µM 0 | [4]; 2.5 µM 0 | [5]; 2.5 µM 0 | [6]; 2.5 µM 0 | [7]; 2.5 µM 0 | [8]; 2.5 µM 0 | [9]; 2.5 µM 0 | [10]; 2.5 µM 0 | [11]; 2.5 µM 0 | [12]; 2.5 µM 0 | [13]; 2.5 µM 0 | [14]; 2.5 µM 0 | [15]; 2.5 µM 0 | [16]; 2.5 µM 0 | [17]; 2.5 µM 0 | [18]; 2.5 µM 0 | [19]; 2.5 µM 0 | [20]; 2.5 µM 0

Ordered by count of non-hydrogen atoms (ascending): three of the compounds above
O=C1Nc2ccccc2/C1=C/c1ccccn1 [(E/Z)-GSK-3β inhibitor 1]
inactive: [1]; 10 µM 0 | [2]; 10 µM 0 | [3]; 10 µM 0 | [4]; 10 µM 0 | [5]; 10 µM 0 | [6]; 10 µM 0 | [7]; 10 µM 0 | [8]; 10 µM 0 | [9]; 10 µM 0 | [10]; 10 µM 0 | [11]; 10 µM 0 | [12]; 10 µM 0 | [13]; 10 µM 0 | [14]; 10 µM 0 | [15]; 10 µM 0 | [16]; 10 µM 0 | [17]; 10 µM 0 | [18]; 10 µM 0 | [19]; 10 µM 0 | [20]; 10 µM 0

Nc1cncc(-c2cn3ccnc3c(Nc3ccc(N4CCN(C5COC5)CC4)cc3)n2)n1 [Lanraplenib (succinate)]
inactive: [1]; 10 µM 0 | [2]; 10 µM 0 | [3]; 10 µM 0 | [4]; 10 µM 0 | [5]; 10 µM 0 | [6]; 10 µM 0 | [7]; 10 µM 0 | [8]; 10 µM 0 | [9]; 10 µM 0 | [10]; 10 µM 0 | [11]; 10 µM 0 | [12]; 10 µM 0 | [13]; 10 µM 0 | [14]; 10 µM 0 | [15]; 10 µM 0 | [16]; 10 µM 0 | [17]; 10 µM 0 | [18]; 10 µM 0 | [19]; 10 µM 0 | [20]; 10 µM 0

N#CCC1(n2cc(-c3ncnc4[nH]ccc34)cn2)CN(C2CCN(C(=O)c3ccnc(C(F)(F)F)c3F)CC2)C1 [Itacitinib adipate]
inactive: [1]; 10 µM 0 | [2]; 10 µM 0 | [3]; 10 µM 0 | [4]; 10 µM 0 | [5]; 10 µM 0 | [6]; 10 µM 0 | [7]; 10 µM 0 | [8]; 10 µM 0 | [9]; 10 µM 0 | [10]; 10 µM 0 | [11]; 10 µM 0 | [12]; 10 µM 0 | [13]; 10 µM 0 | [14]; 10 µM 0 | [15]; 10 µM 0 | [16]; 10 µM 0 | [17]; 10 µM 0 | [18]; 10 µM 0 | [19]; 10 µM 0 | [20]; 10 µM 0

Following part:

CN1CCCN(C(=O)c2cccc(-c3ccc(/C=C4/C(=O)Nc5ccc(Cl)cc54)o3)c2)CC1 [CX-6258 (hydrochloride)]
inactive: [1]; 2.5 µM 0 | [2]; 2.5 µM 0 | [3]; 2.5 µM 0 | [4]; 2.5 µM 0 | [5]; 2.5 µM 0 | [6]; 2.5 µM 0 | [7]; 2.5 µM 0 | [8]; 2.5 µM 0 | [9]; 2.5 µM 0 | [10]; 2.5 µM 0 | [11]; 2.5 µM 0 | [12]; 2.5 µM 0 | [13]; 2.5 µM 0 | [14]; 2.5 µM 0 | [15]; 2.5 µM 0 | [16]; 2.5 µM 0 | [17]; 2.5 µM 0 | [18]; 2.5 µM 0 | [19]; 2.5 µM 0 | [20]; 2.5 µM 0

CN(C)C(=N)NC(=N)N [Metformin]
inactive: [1]; 10 µM 0 | [2]; 10 µM 0 | [3]; 10 µM 0 | [4]; 10 µM 0 | [5]; 10 µM 0 | [6]; 10 µM 0 | [7]; 10 µM 0 | [8]; 10 µM 0 | [9]; 10 µM 0 | [10]; 10 µM 0 | [11]; 10 µM 0 | [12]; 10 µM 0 | [13]; 10 µM 0 | [14]; 10 µM 0 | [15]; 10 µM 0 | [16]; 10 µM 0 | [17]; 10 µM 0 | [18]; 10 µM 0 | [19]; 10 µM 0 | [20]; 10 µM 0

CN(C)C(=O)c1cc2cnc(Nc3ccc(N4CCNCC4)cn3)nc2n1C1CCCC1 [Ribociclib hydrochloride]
inactive: [1]; 2.5 µM 0 | [2]; 2.5 µM 0 | [3]; 2.5 µM 0 | [4]; 2.5 µM 0 | [5]; 2.5 µM 0 | [6]; 2.5 µM 0 | [7]; 2.5 µM 0 | [8]; 2.5 µM 0 | [9]; 2.5 µM 0 | [10]; 2.5 µM 0 | [12]; 2.5 µM 0 | [13]; 2.5 µM 0 | [14]; 2.5 µM 0 | [15]; 2.5 µM 0 | [16]; 2.5 µM 0 | [17]; 2.5 µM 0 | [18]; 2.5 µM 0 | [19]; 2.5 µM 0 | [20]; 2.5 µM 0

N=C(N)NC(=O)c1nc(Cl)c(N)nc1N [Amiloride (hydrochloride)]
inactive: [1]; 10 µM 0 | [2]; 10 µM 0 | [3]; 10 µM 0 | [4]; 10 µM 0 | [5]; 10 µM 0 | [6]; 10 µM 0 | [7]; 10 µM 0 | [8]; 10 µM 0 | [9]; 10 µM 0 | [10]; 10 µM 0 | [11]; 10 µM 0 | [12]; 10 µM 0 | [13]; 10 µM 0 | [14]; 10 µM 0 | [15]; 10 µM 0 | [16]; 10 µM 0 | [17]; 10 µM 0 | [18]; 10 µM 0 | [19]; 10 µM 0 | [20]; 10 µM 0

COc1cc2c(Oc3ccc4[nH]c(C)cc4c3F)ncnc2cc1OCCCN1CCCC1 [Cediranib]
inactive: [1]; 2.5 µM 0 | [2]; 2.5 µM 0 | [3]; 2.5 µM 0 | [4]; 2.5 µM 0 | [5]; 2.5 µM 0 | [6]; 2.5 µM 0 | [7]; 2.5 µM 0 | [8]; 2.5 µM 0 | [9]; 2.5 µM 0 | [10]; 2.5 µM 0 | [11]; 2.5 µM 0 | [12]; 2.5 µM 0 | [13]; 2.5 µM 0 | [14]; 2.5 µM 0 | [15]; 2.5 µM 0 | [16]; 2.5 µM 0 | [17]; 2.5 µM 0 | [18]; 2.5 µM 0 | [19]; 2.5 µM 0 | [20]; 2.5 µM 0

CCc1nc(C(N)=O)c(Nc2ccc(N3CCC(N4CCN(C)CC4)CC3)c(OC)c2)nc1NC1CCOCC1 [Gilteritinib]
inactive: [1]; 2 µM 0 | [2]; 2 µM 0 | [3]; 2 µM 0 | [4]; 2 µM 0 | [5]; 2 µM 0 | [6]; 2 µM 0 | [7]; 2 µM 0 | [8]; 2 µM 0 | [9]; 2 µM 0 | [10]; 2 µM 0 | [11]; 2 µM 0 | [12]; 2 µM 0 | [13]; 2 µM 0 | [14]; 2 µM 0 | [15]; 2 µM 0 | [16]; 2 µM 0 | [17]; 2 µM 0 | [18]; 2 µM 0 | [19]; 2 µM 0 | [20]; 2 µM 0
